# Taken from: PubChem BioAssay AID686938 (Drosophila RNAi Screening Center, 2013)
# Test: 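Looking for CRAC channel components and the factors controlling them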 (primary screen)
# Cells: Drosophila S2R+ cells
# Reagent: long dsRNA against Drosophila genes, about 0.25 µg dsRNA per well, roughly 10,000 cells
# Duration: 5 days of knock-down before the calcium assay
# Challenge: thapsigargin (SERCA pump blocker) to empty calcium stores; entry signal taken 4 min after adding it
# Read-out: 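Duplicate raw fluo-4 intensities per well from a plate reader, at rest and four minutes after thapsigargin emptied calcium stores; entry-to-rest ratio filled for only some wells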
# Direction: calcium entry signal: higher = stronger calcium signal after store depletion; resting calcium signal: higher = higher resting calcium signal
# Rule for the call: 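Called when the plate z-score of the entry-to-rest ratio, mean of duplicates, falls below −3; wells with low overall dye signal (Fmax z below −2) or more than five off-targets excluded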
# Calls: active = strongly reduced calcium entry; inactive = no strong reduction
# In all, the deposit lists about 23,000 reagents; shown is an unselected part of those that have a named target and a result. Of all reagents, 75 (0.33%) got an active call. 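Raw plate signals without normalisation; calls rest on plate z-scores that were not deposited; ratio present for only 364 wells.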 A number with no mark means an inactive call. Not given: the dose of the treatment.
Gene,amplicon,"calcium entry signal, replicate 1 (fluorescence units)","calcium entry signal, replicate 2 (fluorescence units)","resting calcium signal, replicate 1 (fluorescence units)","resting calcium signal, replicate 2 (fluorescence units)"
Poc1 (GeneID 39502),DRSC09713,5.36e7,3.45e7,3.19e7,1.50e7
Non2 (GeneID 38341),DRSC08272,4.42e7,3.61e7,2.22e7,1.82e7
CG42827 (GeneID 42763),DRSC16116,3.45e7,4.74e7,1.83e7,2.28e7
CG12713 (GeneID 39724),DRSC09900,4.24e7,4.86e7,1.90e7,3.36e7
RIC-3 (GeneID 37384),DRSC04243,3.74e7,,2.03e7,
RIC-3 (GeneID 37384),DRSC04543,5.68e7,6.35e7,2.76e7,2.55e7
Gr21a (GeneID 33251),DRSC00366,3.92e7,4.11e7,1.86e7,1.86e7
Esp (GeneID 42962),DRSC16664,3.72e7,3.24e7,1.72e7,1.39e7
pim (GeneID 34404),DRSC03591,3.04e7,,2.17e7,
BBS8 (GeneID 33217),DRSC00360,3.11e7,3.30e7,1.48e7,1.42e7
RpL10Aa (GeneID 41811),DRSC15518,2.23e7,3.79e7,1.23e7,5.93e7
Atg18a (GeneID 38913),DRSC10943,5.12e7,4.79e7,3.03e7,1.80e7
Tdc1 (GeneID 35573),DRSC04942,3.02e7,6.13e7,1.54e7,2.68e7
CG15930 (GeneID 31446),DRSC18107,1.74e7,2.81e7,9.27e6,1.43e7
Srlp (GeneID 41533),DRSC15890,2.64e7,2.63e7,1.71e7,1.74e7
MED30 (GeneID 38078),DRSC08516,4.29e7,3.15e7,2.25e7,1.73e7
MED30 (GeneID 38078),DRSC23135,2.67e7,3.97e7,1.23e7,1.62e7
CG12923 (GeneID 36026),DRSC06237,3.49e7,3.02e7,1.60e7,1.47e7
nonA (GeneID 32603),DRSC20357,2.46e7,1.98e7,1.30e7,1.11e7
Rab9 (GeneID 35221),DRSC03281,4.56e7,4.37e7,2.16e7,1.81e7

Quoted from above, 8 entries:
Gene,amplicon,"calcium entry signal, replicate 1 (fluorescence units)","calcium entry signal, replicate 2 (fluorescence units)","resting calcium signal, replicate 1 (fluorescence units)","resting calcium signal, replicate 2 (fluorescence units)"
Non2 (GeneID 38341),DRSC08272,4.42e7,3.61e7,2.22e7,1.82e7
CG42827 (GeneID 42763),DRSC16116,3.45e7,4.74e7,1.83e7,2.28e7
CG12713 (GeneID 39724),DRSC09900,4.24e7,4.86e7,1.90e7,3.36e7
RIC-3 (GeneID 37384),DRSC04243,3.74e7,,2.03e7,
RIC-3 (GeneID 37384),DRSC04543,5.68e7,6.35e7,2.76e7,2.55e7
Gr21a (GeneID 33251),DRSC00366,3.92e7,4.11e7,1.86e7,1.86e7
Esp (GeneID 42962),DRSC16664,3.72e7,3.24e7,1.72e7,1.39e7
pim (GeneID 34404),DRSC03591,3.04e7,,2.17e7,

The list goes on.
Gene,amplicon,"calcium entry signal, replicate 1 (fluorescence units)","calcium entry signal, replicate 2 (fluorescence units)","resting calcium signal, replicate 1 (fluorescence units)","resting calcium signal, replicate 2 (fluorescence units)"
CG8517 (GeneID 37268),DRSC07205,4.82e7,4.83e7,1.93e7,2.06e7
DIP-beta (GeneID 33125),DRSC20461,2.81e7,3.55e7,1.41e7,1.59e7
DIP-beta (GeneID 33125),DRSC20489,5.37e7,5.29e7,2.43e7,2.33e7
DIP-beta (GeneID 33125),DRSC20490,5.53e7,4.76e7,2.29e7,2.03e7
DIP-beta (GeneID 33125),DRSC20505,6.08e7,2.72e7,2.42e7,1.29e7
nullo (GeneID 31652),DRSC18807,3.68e7,4.45e7,1.79e7,2.12e7
CG14453 (GeneID 40484),DRSC11710,2.04e7,3.79e7,1.07e7,1.88e7
CG4328 (GeneID 39405),DRSC10410,3.24e7,4.69e7,1.92e7,2.57e7
CG4328 (GeneID 39405),DRSC23146,3.67e7,4.02e7,1.79e7,1.94e7
Gmd (GeneID 33716),DRSC03119,3.61e7,,1.95e7,
NetA (GeneID 32398),DRSC20261,3.50e7,3.34e7,1.78e7,1.52e7
CG32264 (GeneID 38438),DRSC08061,3.59e7,4.68e7,1.92e7,2.13e7
CG32264 (GeneID 38438),DRSC08167,3.04e7,3.98e7,1.58e7,1.75e7
CG32264 (GeneID 38438),DRSC08169,4.32e7,3.41e7,2.60e7,1.34e7
CG32264 (GeneID 38438),DRSC08285,3.07e7,7.04e7,1.64e7,2.90e7
CG32264 (GeneID 38438),DRSC08437,3.27e7,3.50e7,1.74e7,1.72e7
CG14892 (GeneID 42016),DRSC15014,2.06e7,2.68e7,1.11e7,4.44e7
Tb (GeneID 43212),DRSC15815,2.58e7,3.59e7,1.35e7,1.75e7
CG15139 (retired record) (GeneID 12798250),DRSC02439,4.68e7,3.54e7,2.11e7,1.39e7
CG14253 (GeneID 43243),DRSC14748,3.15e7,5.09e7,1.64e7,2.07e7
EbpIII (GeneID 49821),DRSC04638,2.71e7,3.42e7,1.47e7,1.49e7
Nazo (GeneID 40976),DRSC14343,3.98e7,4.59e7,2.00e7,2.29e7
CG13229 (GeneID 36168),DRSC06349,1.70e7,3.24e7,9.97e6,1.30e7
tadr (GeneID 35370),DRSC03177,3.32e7,,1.57e7,
CG3124 (GeneID 37688),DRSC04339,2.46e7,2.04e7,1.29e7,9.71e6
CG3124 (GeneID 37688),DRSC23062,3.16e7,3.37e7,1.68e7,1.59e7
mRpS35 (GeneID 38345),DRSC08551,3.70e7,4.42e7,1.73e7,1.73e7
CG32024 (GeneID 317828),DRSC21883,2.48e7,4.57e7,1.22e7,2.16e7
CG9890 (GeneID 37659),DRSC04590,4.13e7,4.72e7,2.09e7,2.18e7
CG3061 (GeneID 41707),DRSC15460,3.60e7,5.11e7,1.79e7,6.04e7
Hsf (GeneID 37068),DRSC07443,3.41e7,3.63e7,1.59e7,1.77e7
CG7694 (GeneID 42230),DRSC16288,4.69e7,5.28e7,5.87e7,2.31e7
CG15252 (GeneID 31931),DRSC17981,2.80e7,4.12e7,1.40e7,1.99e7
Pde9 (GeneID 32233),DRSC19746,2.77e7,4.02e7,1.40e7,1.85e7
Pde9 (GeneID 32233),DRSC19874,4.44e7,5.06e7,2.11e7,2.38e7
Pde9 (GeneID 32233),DRSC19875,4.11e7,5.32e7,2.01e7,2.33e7
Pde9 (GeneID 32233),DRSC19876,3.99e7,3.86e7,1.87e7,1.72e7
Alg9 (GeneID 43031),DRSC14407,4.11e7,3.35e7,2.08e7,1.58e7
